Measurements from “University of Dundee, Small-Polar-MMV Screening Library” (2021), ChEMBL document CHEMBL3988442.

Results are given as percent effect. How 0% and 100% were set is not recorded. Most values in the screen are low, and negative values occur. Compounds were drawn at random from those tested, without regard to their results. A dash means the value is not listed here; it may have been measured.

A: 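Whole-cell assay for inhibitors of Mycobacterium tuberculosis growth, labelled Cornell in the record; the read-out is not stated. The concentration is filed as 10 mM, unlikely as a test dose, so the dose is not known. Higher means stronger inhibition (inferred from two other growth screens of the library). Size under these conditions: about 53,000 compounds, about 900 of them at 50% or above in at least one test.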
B: 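Assay on Mycobacterium tuberculosis, filed only as a heat shock assay from Cornell; the read-out is not stated. The concentration is filed as 10 mM, unlikely as a test dose, so the dose is not known. The record gives no direction; compounds that gave an IC50 in retests scored well above the rest, so higher reads as stronger inhibition. Of about 69,000 compounds tested this way, about 930 (1.4%) reached 50% or more in at least one test.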

| SMILES | A | B |
|---|---|---|
| `Cc1ccccc1CN(CCN(C)C)Cc1ncc[nH]1` | -21.25% | 0.4859% |
| `CCN1CCCC(O)(c2nc(C)c(CCOc3ccccc3F)s2)CC1` (stereo unspecified) | 8.31% | 21.23% |
| `O=C(NCCC(=O)N1CCCCCCC1)c1ccoc1` | - | -20.58% |
| `O=C(C1CC1)N1CC2(CCN(CC3CC3)CC2)c2cc(F)ccc21.O=C(O)C(F)(F)F` | - | -19.13% |
| `Cc1nnc(NC(=O)NCc2ccc(N3CCC(C)CC3)nc2)s1` | - | 2.104% |
| `N#CCCNC(=O)CSc1ccc(F)cc1F` | - | 7.534% |
| `O=C(O)C(F)(F)F.[H][C@@]12CN(c3cccnc3)CC[C@]1([H])CN(c1cccc(F)c1)C2` | 50.35% | 98.87% |
| `O=C(Cn1cnc2cc3c(cc21)OCCCO3)NC1CCCC1` | 10.71% | 0.875% |
| `Cn1cnnc1SCC(=O)NC1CC(=O)N(CCc2ccccc2)C1` (stereo unspecified) | 4.064% | 12.46% |
| `CN(C)C(=O)Cn1c(C2CC2)c(CN2CCC(O)CC2)c2cccnc21.Cl` | -25.12% | -13.49% |
| `CCn1cc(CN2CCCN(C(=O)c3ccccc3OC)CC2)cn1` | - | -8.284% |
| `[H][C@]12CC[C@]([H])(CN(Cc3ccncc3)C1)N(C(=O)C1CCOCC1)C2` | - | -6.202% |
| `Cc1cc(C)n(CC2CN(Cc3nc(C4CC4)no3)CCO2)n1` (stereo unspecified) | - | -8.544% |
| `Cn1cc(-c2nnn3c2COC(CNCC2CCOCC2)C3)cn1` (stereo unspecified) | - | -24.68% |
| `Cc1ccc(C(O)CNC(=O)NCc2nc(C)cs2)cc1` (stereo unspecified) | - | -1.189% |
| `CCCN1CCC(CC(=O)NCCc2nc(C)cc(C)n2)CC1` | -8.835% | 17.94% |
| `CCCSc1nn(CCN(C)C)c2nc3sc(C)c(CC)c3c(=O)n12` | 14.55% | 0.3022% |
| `O=C(O)c1ccc(C2CCCN(Cc3ccc(-c4cc[nH]n4)o3)C2)cc1` (stereo unspecified) | -17.39% | -4.923% |
| `CCCc1cc(C(=O)N2CCC3(CCCNC3=O)C2)cs1` (stereo unspecified) | -2.32% | -18.42% |
| `CC(=O)Nc1nc(CS(=O)(=O)CCCc2ccccc2)cs1` | 18.48% | 23.73% |
| `CN(Cc1cnn(C)c1)C(=O)Nc1cccnc1-n1cccn1` | -36.56% | -33.2% |
| `COc1ccc(C(NC(=O)c2cccc[n+]2[O-])C2CC2)cc1` (stereo unspecified) | - | 7.328% |
| `CCN(Cc1ccc(C)o1)C(=O)C(C)n1ccnc1C(C)C` (stereo unspecified) | - | 11.44% |
| `CCCC(=O)N(CCN1CCOCC1)c1nc2c(OC)ccc(C)c2s1.Cl` | -1.479% | -13.82% |
| `Cn1ncc2c1NC(=O)CC2c1c(F)cccc1Cl` (stereo unspecified) | 13.6% | 4.506% |
| `O=C(O)C(F)(F)F.O=C(O)C(F)(F)F.[H][C@@]12CCN(Cc3nccs3)C[C@]1([H])O[C@@H](C(=O)Nc1cccnc1C)C2` | 3.376% | -3.608% |
| `CCc1nsc(N2CCCN(CC(=O)N(C)C3CC3)CC2)n1` | - | -0.7627% |
| `Cn1ccc(C(=O)N2CCN(c3nccs3)CC2)cc1=O` | -25.58% | -1.931% |
| `NC(=O)Nc1cccc(C(=O)N(Cc2ccc(F)cc2)C2CC2)c1` | 9.883% | 12.03% |
| `O=C1CCSCC(C(=O)N2CCCC2)N1` (stereo unspecified) | -9.005% | -18.15% |
| `COC(=O)CSCc1nc(-c2ccc(Cl)cc2)no1` | - | -194.5% |
| `COCCC(C)NCc1ccccc1-n1ccnc1` (stereo unspecified) | 10.42% | 0.734% |
| `Cc1ccsc1CNC(=O)Nc1ccn(CCN2CCOCC2)n1` | 0.4807% | -7.729% |
| `CC(C)n1cnnc1CN(C)Cc1cnc(-c2cccs2)nc1` | -5.73% | 13.15% |
| `O=C(c1ccc(Cl)cc1F)N1CCC(Cn2cc(CO)nn2)CC1` | 33.16% | 9.971% |
| `Cc1cc(C)n(C2CCCN(C(=O)Cc3cccs3)C2)n1` (stereo unspecified) | - | -22.92% |
| `CN1CCOCC2(CCN(Cc3ccc[nH]3)CC2)C1.O=C(O)C(F)(F)F.O=C(O)C(F)(F)F` | -32.08% | -9.077% |
| `CSCCNC(=O)c1ccc(OC2CCN(CC(C)(C)C)CC2)c(Cl)c1` | 1.463% | 5.303% |
| `Cc1cccc(C(=O)N2CCC3(CCN(c4cnn(C)c4)C3=O)C2)n1.O=C(O)C(F)(F)F` (stereo unspecified) | -5.768% | -42.68% |
| `CC1(C)CN(CCC(=O)NCc2cccc(Cl)c2)CC[C@]1(C)O` | 43.95% | 6.391% |
| `Fc1ccc(CNC2CCN(CCc3ccncc3)CC2)cc1F` | - | 9.799% |
| `O=C(O)C(F)(F)F.O=C(O)C(F)(F)F.c1ccc(CCN2CCn3cc(Cn4cccn4)nc3C2)cc1` | 16.76% | -9.75% |
| `CCc1ncc(CN2CCCC3(CCC(=O)N(CCC(C)C)C3)C2)cn1` (stereo unspecified) | 7.977% | -12.52% |
| `CCN1CC2(CC1=O)CN(Cc1ccoc1)CCN(C(=O)C(C)C)C2` (stereo unspecified) | 0.2748% | 0.3456% |
| `FC1(F)CCN(Cc2cccnc2)CC12CCN(c1ccccn1)C2.O=C(O)C(F)(F)F.O=C(O)C(F)(F)F.O=C(O)C(F)(F)F` (stereo unspecified) | -7.439% | 8.031% |
| `O=C(CNC(=O)Nc1c(F)cccc1Oc1ccccc1)NC1CC1` | 23.71% | 2.19% |
| `Cc1nn(-c2ccccc2)c(C)c1CNC(=O)NC1CC(=O)N(C)C1` (stereo unspecified) | - | 3.727% |
| `CS(=O)(=O)NC1CCCN(C(=O)c2cccnc2)C1` (stereo unspecified) | - | -3.112% |
| `CCN(C)CCNC(=O)Cc1nc(-c2ccco2)oc1C` | -30.03% | -15.68% |
| `O=C(O)C(F)(F)F.O=C(O)C(F)(F)F.[H][C@@]12CCCO[C@]1([H])[C@H](N(C)Cc1ccco1)CN(Cc1ccc(F)cc1)C2` | 8.396% | -5.64% |
| `O=C(O)C(F)(F)F.[H][C@@]12COC[C@]1(CN1CCOCC1)CN(S(=O)(=O)c1ccccc1)C2` | -40.4% | -40.27% |
| `CN(Cc1ccco1)C(=O)C1CSCN1C(=O)C1CCC1` (stereo unspecified) | - | 6.936% |
| `O=C(O)C(F)(F)F.[H][C@]12CC[C@@]3(N=C(C)N(CC4CC4)C3=O)[C@@]1([H])CN(CCOC)C2` | -4.846% | 0.441% |
| `Cn1ncc2c(N3CCCN(C(=O)c4ccsc4)CC3)ncnc21` | 16.86% | -10.36% |
| `COc1ccc(N2CCN(C(=O)OC(C)(C)C)C(C(=O)O)C2)cc1` (stereo unspecified) | 42.22% | 8.607% |
| `Cc1ccc(C(=O)N2CCC3(CCN(Cc4ccccn4)C3=O)C2)cn1` (stereo unspecified) | -20.46% | -3.707% |
| `Cc1ccc(CN(CCN(C)C)Cc2ncc[nH]2)s1` | 18.16% | -11.95% |
| `CC(=O)Nc1ncc(S(=O)(=O)Nc2ccccc2)s1` | - | 8.482% |
| `CCC(CC)c1cc(CNC(=O)N2CCC(CO)CC2)on1` | - | 2.838% |
| `Cc1ccccc1-c1cc(C(=O)N2CCn3c(C)nnc3C2)[nH]n1` | - | 0.05097% |
| `Cc1cc(NC(=O)NCC(O)c2ccc(F)c(F)c2)n(C)n1` (stereo unspecified) | - | -30.37% |
| `Cc1n[nH]c(C)c1CCC(=O)NCC1COc2ccccc2C1` (stereo unspecified) | 32.31% | -5.627% |
| `COc1nn(C)cc1-c1nnc(SCc2cccnc2)n1C` | 11.72% | -7.461% |
| `CO[C@@]1(C)C[C@@H](O)C12CCN(C(=O)c1ccccc1C(C)=O)CC2` | -72.91% | 18.71% |
| `Cc1nc2ccccc2n1Cc1cc(C(=O)NC2CCOC2)no1` (stereo unspecified) | 4.988% | 1.101% |
| `COc1ncccc1C(=O)Nc1cccc(C[S+](C)[O-])c1C` (stereo unspecified) | 28.55% | -5.496% |
| `Cc1cc(C(=O)N2CC(O)CO2)c2ccc(C)c(C)c2n1` (stereo unspecified) | 34.82% | 9.54% |
| `Cc1cc(C)nc(NC2CCCN(CCCc3ccccc3)C2)n1` (stereo unspecified) | -51.59% | -12.21% |
| `CC(C)c1nc(CN2CCN(C(=O)CN3CCOCC3)CC2)no1` | - | -14.79% |
| `COc1ccc(Cl)cc1-n1c(COC(C)C)n[nH]c1=O` | -2.359% | -3.089% |
| `CCn1cc(S(=O)(=O)N2CCCSc3ccccc32)cn1` | - | -5.214% |
| `[H][C@@]12CS(=O)(=O)C[C@]1([H])N(C(=O)c1ncoc1C)CCN2C(=O)CC(C)C` | -22.63% | 28.75% |
| `Cc1ccc(CNc2cc(C(=O)N3CCOCC3)nc(C)n2)cc1` | 3.764% | 15.89% |
| `CCOc1cc(C)nc(N2CCN(C(=O)c3cscn3)CC2)n1` | - | -12.91% |
| `CC(C)(C)CC(=O)N[C@@H]1CO[C@H](CNC(=O)c2ccncc2)[C@H]1O` | 4.501% | -4.994% |
| `CCOCCCNC(=O)N(C)Cc1ccc(SC)c(OC)c1` | - | -39.02% |
| `O=C(O)C(F)(F)F.[H][C@@]12CN(CC3CCC3)C[C@]1([H])OCCN2c1cnccn1` | 13.46% | 6.326% |

The last 10 entries again:

SMILES	A	B
Cc1cc(C)nc(NC2CCCN(CCCc3ccccc3)C2)n1 (stereo unspecified)	-51.59%	-12.21%
CC(C)c1nc(CN2CCN(C(=O)CN3CCOCC3)CC2)no1	-	-14.79%
COc1ccc(Cl)cc1-n1c(COC(C)C)n[nH]c1=O	-2.359%	-3.089%
CCn1cc(S(=O)(=O)N2CCCSc3ccccc32)cn1	-	-5.214%
[H][C@@]12CS(=O)(=O)C[C@]1([H])N(C(=O)c1ncoc1C)CCN2C(=O)CC(C)C	-22.63%	28.75%
Cc1ccc(CNc2cc(C(=O)N3CCOCC3)nc(C)n2)cc1	3.764%	15.89%
CCOc1cc(C)nc(N2CCN(C(=O)c3cscn3)CC2)n1	-	-12.91%
CC(C)(C)CC(=O)N[C@@H]1CO[C@H](CNC(=O)c2ccncc2)[C@H]1O	4.501%	-4.994%
CCOCCCNC(=O)N(C)Cc1ccc(SC)c(OC)c1	-	-39.02%
O=C(O)C(F)(F)F.[H][C@@]12CN(CC3CCC3)C[C@]1([H])OCCN2c1cnccn1	13.46%	6.326%